Reference: paper PMC5400511
Where two headings read alike, the source gives them in different places. These are yes or no findings as the source states them, for the method shown. Binding seen in cells or lysates may run through a third protein. Here binding means that the protein was enriched with, or labelled near, the bait; the list need not be complete. Values belong to the molecule of their own block, whether it stands above or below them.

Amino acid sequences for entries named in this document (tags omitted).
UniProt Q04656: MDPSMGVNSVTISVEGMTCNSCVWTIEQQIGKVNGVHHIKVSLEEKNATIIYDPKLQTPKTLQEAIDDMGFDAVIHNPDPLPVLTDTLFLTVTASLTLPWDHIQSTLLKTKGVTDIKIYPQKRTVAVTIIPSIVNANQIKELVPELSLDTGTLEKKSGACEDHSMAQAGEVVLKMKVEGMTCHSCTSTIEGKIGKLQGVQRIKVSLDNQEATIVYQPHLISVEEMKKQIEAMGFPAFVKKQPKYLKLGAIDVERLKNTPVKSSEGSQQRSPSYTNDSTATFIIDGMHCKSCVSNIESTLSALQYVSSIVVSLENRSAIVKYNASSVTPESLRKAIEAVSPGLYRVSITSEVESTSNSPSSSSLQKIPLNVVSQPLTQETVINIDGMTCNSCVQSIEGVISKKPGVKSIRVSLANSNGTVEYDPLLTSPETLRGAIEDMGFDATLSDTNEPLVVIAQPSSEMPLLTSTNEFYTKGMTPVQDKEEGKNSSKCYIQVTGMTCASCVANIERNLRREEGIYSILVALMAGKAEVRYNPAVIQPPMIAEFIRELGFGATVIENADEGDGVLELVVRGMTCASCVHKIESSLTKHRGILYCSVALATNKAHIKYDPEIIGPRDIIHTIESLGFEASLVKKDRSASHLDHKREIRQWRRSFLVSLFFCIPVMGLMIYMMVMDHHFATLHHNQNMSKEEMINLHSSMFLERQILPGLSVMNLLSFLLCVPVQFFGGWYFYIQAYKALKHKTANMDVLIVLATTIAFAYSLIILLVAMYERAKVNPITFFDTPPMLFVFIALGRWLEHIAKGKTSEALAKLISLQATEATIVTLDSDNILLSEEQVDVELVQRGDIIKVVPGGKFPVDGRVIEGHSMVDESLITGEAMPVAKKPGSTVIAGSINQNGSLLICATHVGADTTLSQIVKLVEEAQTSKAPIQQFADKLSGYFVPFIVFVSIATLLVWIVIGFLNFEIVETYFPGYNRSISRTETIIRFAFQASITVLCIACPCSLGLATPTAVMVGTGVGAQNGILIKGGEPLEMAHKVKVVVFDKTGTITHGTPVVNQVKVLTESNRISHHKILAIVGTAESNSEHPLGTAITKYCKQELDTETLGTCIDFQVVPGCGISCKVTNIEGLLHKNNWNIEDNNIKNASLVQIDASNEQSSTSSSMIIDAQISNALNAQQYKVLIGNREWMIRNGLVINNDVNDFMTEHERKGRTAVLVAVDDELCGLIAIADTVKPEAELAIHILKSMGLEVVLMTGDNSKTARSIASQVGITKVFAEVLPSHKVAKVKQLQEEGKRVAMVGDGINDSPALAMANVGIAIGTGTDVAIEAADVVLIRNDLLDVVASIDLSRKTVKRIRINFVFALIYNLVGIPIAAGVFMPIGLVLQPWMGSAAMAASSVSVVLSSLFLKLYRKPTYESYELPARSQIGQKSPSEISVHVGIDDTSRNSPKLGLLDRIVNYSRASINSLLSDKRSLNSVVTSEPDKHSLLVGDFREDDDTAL
UniProt Q96N67: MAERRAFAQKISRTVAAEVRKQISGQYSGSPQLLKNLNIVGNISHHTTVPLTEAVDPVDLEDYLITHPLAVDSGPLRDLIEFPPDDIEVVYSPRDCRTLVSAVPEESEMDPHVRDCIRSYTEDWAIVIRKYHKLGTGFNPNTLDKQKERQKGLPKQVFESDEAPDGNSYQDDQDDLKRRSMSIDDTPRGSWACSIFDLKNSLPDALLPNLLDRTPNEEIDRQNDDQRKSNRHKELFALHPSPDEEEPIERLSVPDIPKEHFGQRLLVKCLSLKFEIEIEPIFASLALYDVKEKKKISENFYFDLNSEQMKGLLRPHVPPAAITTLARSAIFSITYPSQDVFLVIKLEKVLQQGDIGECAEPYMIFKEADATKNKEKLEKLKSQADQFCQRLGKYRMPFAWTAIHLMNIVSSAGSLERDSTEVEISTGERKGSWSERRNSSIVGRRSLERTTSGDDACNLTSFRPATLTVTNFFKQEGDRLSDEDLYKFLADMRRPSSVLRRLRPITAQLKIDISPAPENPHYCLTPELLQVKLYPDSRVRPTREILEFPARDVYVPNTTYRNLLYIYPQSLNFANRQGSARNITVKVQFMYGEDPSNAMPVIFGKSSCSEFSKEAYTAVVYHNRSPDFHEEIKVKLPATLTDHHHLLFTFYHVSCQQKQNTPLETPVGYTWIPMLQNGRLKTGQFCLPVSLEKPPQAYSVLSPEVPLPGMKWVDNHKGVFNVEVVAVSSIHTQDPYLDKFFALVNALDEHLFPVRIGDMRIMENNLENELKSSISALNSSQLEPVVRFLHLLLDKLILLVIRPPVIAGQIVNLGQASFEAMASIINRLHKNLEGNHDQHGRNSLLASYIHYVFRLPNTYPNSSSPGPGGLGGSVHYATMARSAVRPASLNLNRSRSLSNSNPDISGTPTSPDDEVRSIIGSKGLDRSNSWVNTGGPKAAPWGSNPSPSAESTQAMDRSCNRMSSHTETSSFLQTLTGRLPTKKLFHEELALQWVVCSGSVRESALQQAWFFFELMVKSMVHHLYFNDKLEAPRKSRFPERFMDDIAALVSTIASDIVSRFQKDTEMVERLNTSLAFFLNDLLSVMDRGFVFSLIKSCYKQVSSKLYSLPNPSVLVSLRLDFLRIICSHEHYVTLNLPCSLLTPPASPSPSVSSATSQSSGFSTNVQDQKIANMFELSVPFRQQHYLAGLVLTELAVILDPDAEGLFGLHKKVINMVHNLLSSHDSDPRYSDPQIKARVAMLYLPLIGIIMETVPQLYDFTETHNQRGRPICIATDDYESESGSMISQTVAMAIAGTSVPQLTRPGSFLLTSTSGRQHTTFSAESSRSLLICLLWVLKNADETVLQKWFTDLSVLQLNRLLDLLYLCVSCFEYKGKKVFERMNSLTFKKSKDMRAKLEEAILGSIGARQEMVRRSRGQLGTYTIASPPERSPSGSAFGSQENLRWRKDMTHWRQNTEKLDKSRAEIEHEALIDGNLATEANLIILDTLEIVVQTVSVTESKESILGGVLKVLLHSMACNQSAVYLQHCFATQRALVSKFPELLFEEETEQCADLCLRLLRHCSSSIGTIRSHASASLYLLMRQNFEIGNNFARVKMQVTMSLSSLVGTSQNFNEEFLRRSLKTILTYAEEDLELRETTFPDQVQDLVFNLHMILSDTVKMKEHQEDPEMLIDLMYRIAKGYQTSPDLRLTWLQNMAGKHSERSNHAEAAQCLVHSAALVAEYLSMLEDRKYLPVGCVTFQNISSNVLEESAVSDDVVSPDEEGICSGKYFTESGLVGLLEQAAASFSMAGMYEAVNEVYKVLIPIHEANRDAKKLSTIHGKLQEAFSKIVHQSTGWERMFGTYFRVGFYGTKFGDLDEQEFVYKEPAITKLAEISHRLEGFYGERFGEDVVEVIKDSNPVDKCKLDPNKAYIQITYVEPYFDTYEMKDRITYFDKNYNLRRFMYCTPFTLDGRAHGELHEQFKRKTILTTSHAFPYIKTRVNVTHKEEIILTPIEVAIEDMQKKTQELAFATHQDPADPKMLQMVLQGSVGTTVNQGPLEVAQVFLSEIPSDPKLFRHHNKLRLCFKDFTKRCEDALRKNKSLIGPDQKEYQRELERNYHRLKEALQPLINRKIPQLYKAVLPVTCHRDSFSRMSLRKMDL
UniProt P46459: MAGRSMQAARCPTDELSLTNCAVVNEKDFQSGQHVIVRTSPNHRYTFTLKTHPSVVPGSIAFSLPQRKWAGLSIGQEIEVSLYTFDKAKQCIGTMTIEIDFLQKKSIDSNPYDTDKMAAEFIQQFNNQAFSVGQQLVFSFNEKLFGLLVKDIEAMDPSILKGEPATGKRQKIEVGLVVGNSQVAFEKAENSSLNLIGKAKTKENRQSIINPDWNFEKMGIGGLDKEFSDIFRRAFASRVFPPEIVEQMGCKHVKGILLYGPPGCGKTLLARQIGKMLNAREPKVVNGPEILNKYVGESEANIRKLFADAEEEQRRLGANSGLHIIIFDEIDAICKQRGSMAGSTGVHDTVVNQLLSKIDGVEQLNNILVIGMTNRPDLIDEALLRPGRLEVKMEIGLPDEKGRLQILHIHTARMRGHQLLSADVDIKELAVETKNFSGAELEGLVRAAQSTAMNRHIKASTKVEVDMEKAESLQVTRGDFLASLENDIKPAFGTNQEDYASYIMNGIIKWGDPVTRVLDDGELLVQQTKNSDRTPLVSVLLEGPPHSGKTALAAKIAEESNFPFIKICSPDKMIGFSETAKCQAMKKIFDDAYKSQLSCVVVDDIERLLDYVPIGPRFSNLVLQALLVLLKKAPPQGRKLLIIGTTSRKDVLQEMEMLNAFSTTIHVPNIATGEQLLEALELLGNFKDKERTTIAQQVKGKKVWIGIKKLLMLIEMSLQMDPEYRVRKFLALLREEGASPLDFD
UniProt P19838: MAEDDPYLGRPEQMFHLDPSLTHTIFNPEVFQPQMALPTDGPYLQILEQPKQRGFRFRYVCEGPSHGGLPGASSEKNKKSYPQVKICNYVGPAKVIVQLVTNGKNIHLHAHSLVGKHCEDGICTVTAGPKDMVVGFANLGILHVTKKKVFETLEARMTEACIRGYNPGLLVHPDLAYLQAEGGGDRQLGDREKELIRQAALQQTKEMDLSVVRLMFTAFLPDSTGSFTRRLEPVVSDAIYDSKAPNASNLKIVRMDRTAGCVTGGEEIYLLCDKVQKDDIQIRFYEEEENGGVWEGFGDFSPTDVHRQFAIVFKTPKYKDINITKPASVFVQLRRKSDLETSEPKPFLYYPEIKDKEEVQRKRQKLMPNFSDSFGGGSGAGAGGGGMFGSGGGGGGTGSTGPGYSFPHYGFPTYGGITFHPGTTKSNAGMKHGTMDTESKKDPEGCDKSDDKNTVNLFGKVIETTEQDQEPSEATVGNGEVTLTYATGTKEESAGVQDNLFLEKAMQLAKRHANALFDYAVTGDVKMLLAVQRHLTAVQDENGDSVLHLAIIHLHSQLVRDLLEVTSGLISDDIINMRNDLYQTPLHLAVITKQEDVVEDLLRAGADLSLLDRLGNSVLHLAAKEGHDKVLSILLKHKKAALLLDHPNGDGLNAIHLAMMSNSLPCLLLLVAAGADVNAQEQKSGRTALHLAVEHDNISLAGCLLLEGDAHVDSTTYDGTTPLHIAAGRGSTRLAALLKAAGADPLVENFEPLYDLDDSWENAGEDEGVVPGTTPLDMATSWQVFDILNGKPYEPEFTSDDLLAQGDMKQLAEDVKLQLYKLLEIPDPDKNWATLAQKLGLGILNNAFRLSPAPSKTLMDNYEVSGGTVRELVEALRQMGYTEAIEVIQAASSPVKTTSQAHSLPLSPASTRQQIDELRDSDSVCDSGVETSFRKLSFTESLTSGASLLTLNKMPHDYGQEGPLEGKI

Legend:
[1] = molecular target: ATP7A (human (endogenous in SH-SY5Y)) (UniProt Q04656); assay: affinity purification with mass spectrometry; SH-SY5Y cells pre-treated with 400 uM BCS or 200 uM CuCl2 for 2 hr, cross-linked with DSP; extracts immunoprecipitated with monoclonal ATP7A antibody on magnetic beads without or with 22 uM antigenic ATP7A peptide; eluted with the peptide; label free quantitative mass spectrometry, ratio >2; hits from ATP7A-null fibroblasts removed
[2] = molecular target: ATP7A (human (endogenous in SH-SY5Y)) (UniProt Q04656); assay: as above; remark: listed apart in the source

Molecule: DOCK7 (from UniProt Q96N67 1-2140)
binding [1]: binds

B2: COG7 (protein, UniProt P83436 1-770)
chain: MDFSKFLADDFDVKEWINAAFRAGSKEAASGKADGHAATLVMKLQLFIQEVNHAVEETSHQALQNMPKVLRDVEALKQEASFLKEQMILVKEDIKKFEQDTSQSMQVLVEIDQVKSRMQLAAESLQEADKWSTLSADIEETFKTQDIAVISAKLTGMQNSLMMLVDTPDYSEKCVHLEALKNRLEALASPQIVAAFTSQAVDQSKVFVKVFTEIDRMPQLLAYYYKCHKVQLLAAWQELCQSDLSLDRQLTGLYDALLGAWHTQIQWATQVFQKPHEVVMVLLIQTLGALMPSLPSCLSNGVERAGPEQELTRLLEFYDATAHFAKGLEMALLPHLHEHNLVKVTELVDAVYDPYKPYQLKYGDMEESNLLIQMSAVPLEHGEVIDCVQELSHSVNKLFGLASAAVDRCVRFTNGLGTCGLLSALKSLFAKYVSDFTSTLQSIRKKCKLDHIPPNSLFQEDWTAFQNSIRIIATCGELLRHCGDFEQQLANRILSTAGKYLSDSCSPRSLAGFQESILTDKKNSAKNPWQEYNYLQKDNPAEYASLMEILYTLKEKGSSNHNLLAAPRAALTRLNQQAHQLAFDSVFLRIKQQLLLISKMDSWNTAGIGETLTDELPAFSLTPLEYISNIGQYIMSLPLNLEPFVTQEDSALELALHAGKLPFPPEQGDELPELDNMADNWLGSIARATMQTYCDAILQIPELSPHSAKQLATDIDYLINVMDALGLQPSRTLQHIVTLLKTRPEDYRQVSKGLPRRLATTVATMRSVNY
binding [2]: binds

B3: GIGYF2/PARK11 (protein, UniProt Q6Y7W6 1-1299)
chain: MAAETQTLNFGPEWLRALSSGGSITSPPLSPALPKYKLADYRYGREEMLALFLKDNKIPSDLLDKEFLPILQEEPLPPLALVPFTEEEQRNFSMSVNSAAVLRLTGRGGGGTVVGAPRGRSSSRGRGRGRGECGFYQRSFDEVEGVFGRGGGREMHRSQSWEERGDRRFEKPGRKDVGRPNFEEGGPTSVGRKHEFIRSESENWRIFREEQNGEDEDGGWRLAGSRRDGERWRPHSPDGPRSAGWREHMERRRRFEFDFRDRDDERGYRRVRSGSGSIDDDRDSLPEWCLEDAEEEMGTFDSSGAFLSLKKVQKEPIPEEQEMDFRPVDEGEECSDSEGSHNEEAKEPDKTNKKEGEKTDRVGVEASEETPQTSSSSARPGTPSDHQSQEASQFERKDEPKTEQTEKAEEETRMENSLPAKVPSRGDEMVADVQQPLSQIPSDTASPLLILPPPVPNPSPTLRPVETPVVGAPGMGSVSTEPDDEEGLKHLEQQAEKMVAYLQDSALDDERLASKLQEHRAKGVSIPLMHEAMQKWYYKDPQGEIQGPFNNQEMAEWFQAGYFTMSLLVKRACDESFQPLGDIMKMWGRVPFSPGPAPPPHMGELDQERLTRQQELTALYQMQHLQYQQFLIQQQYAQVLAQQQKAALSSQQQQQLALLLQQFQTLKMRISDQNIIPSVTRSVSVPDTGSIWELQPTASQPTVWEGGSVWDLPLDTTTPGPALEQLQQLEKAKAAKLEQERREAEMRAKREEEERKRQEELRRQQEEILRRQQEEERKRREEEELARRKQEEALRRQREQEIALRRQREEEERQQQEEALRRLEERRREEEERRKQEELLRKQEEEAAKWAREEEEAQRRLEENRLRMEEEAARLRHEEEERKRKELEVQRQKELMRQRQQQQEALRRLQQQQQQQQLAQMKLPSSSTWGQQSNTTACQSQATLSLAEIQKLEEERERQLREEQRRQQRELMKALQQQQQQQQQKLSGWGNVSKPSGTTKSLLEIQQEEARQMQKQQQQQQQHQQPNRARNNTHSNLHTSIGNSVWGSINTGPPNQWASDLVSSIWSNADTKNSNMGFWDDAVKEVGPRNSTNKNKNNASLSKSVGVSNRQNKKVEEEEKLLKLFQGVNKAQDGFTQWCEQMLHALNTANNLDVPTFVSFLKEVESPYEVHDYIRAYLGDTSEAKEFAKQFLERRAKQKANQQRQQQQLPQQQQQQPPQQPPQQPQQQDSVWGMNHSTLHSVFQTNQSNNQQSNFEAVQSGKKKKKQKMVRADPSLLGFSVNASSERLNMGEIETLDDY
binding [2]: binds

B4: COG2 (protein, UniProt Q14746 1-738)
chain: MEKSRMNLPKGPDTLCFDKDEFMKEDFDVDHFVSDCRKRVQLEELRDDLELYYKLLKTAMVELINKDYADFVNLSTNLVGMDKALNQLSVPLGQLREEVLSLRSSVSEGIRAVDERMSKQEDIRKKKMCVLRLIQVIRSVEKIEKILNSQSSKETSALEASSPLLTGQILERIATEFNQLQFHAVQSKGMPLLDKVRPRIAGITAMLQQSLEGLLLEGLQTSDVDIIRHCLRTYATIDKTRDAEALVGQVLVKPYIDEVIIEQFVESHPNGLQVMYNKLLEFVPHHCRLLREVTGGAISSEKGNTVPGYDFLVNSVWPQIVQGLEEKLPSLFNPGNPDAFHEKYTISMDFVRRLERQCGSQASVKRLRAHPAYHSFNKKWNLPVYFQIRFREIAGSLEAALTDVLEDAPAESPYCLLASHRTWSSLRRCWSDEMFLPLLVHRLWRLTLQILARYSVFVNELSLRPISNESPKEIKKPLVTGSKEPSITQGNTEDQGSGPSETKPVVSISRTQLVYVVADLDKLQEQLPELLEIIKPKLEMIGFKNFSSISAALEDSQSSFSACVPSLSSKIIQDLSDSCFGFLKSALEVPRLYRRTNKEVPTTASSYVDSALKPLFQLQSGHKDKLKQAIIQQWLEGTLSESTHKYYETVSDVLNSVKKMEESLKRLKQARKTTPANPVGPSGGMSDDDKIRLQLALDVEYLGEQIQKLGLQASDIKSFSALAELVAAAKDQATAEQP
binding [2]: binds

B5: COG4 (protein, UniProt Q9H9E3 1-785)
chain: MADLDSPPKLSGVQQPSEGVGGGRCSEISAELIRSLTELQELEAVYERLCGEEKVVERELDALLEQQNTIESKMVTLHRMGPNLQLIEGDAKQLAGMITFTCNLAENVSSKVRQLDLAKNRLYQAIQRADDILDLKFCMDGVQTALRSEDYEQAAAHTHRYLCLDKSVIELSRQGKEGSMIDANLKLLQEAEQRLKAIVAEKFAIATKEGDLPQVERFFKIFPLLGLHEEGLRKFSEYLCKQVASKAEENLLMVLGTDMSDRRAAVIFADTLTLLFEGIARIVETHQPIVETYYGPGRLYTLIKYLQVECDRQVEKVVDKFIKQRDYHQQFRHVQNNLMRNSTTEKIEPRELDPILTEVTLMNARSELYLRFLKKRISSDFEVGDSMASEEVKQEHQKCLDKLLNNCLLSCTMQELIGLYVTMEEYFMRETVNKAVALDTYEKGQLTSSMVDDVFYIVKKCIGRALSSSSIDCLCAMINLATTELESDFRDVLCNKLRMGFPATTFQDIQRGVTSAVNIMHSSLQQGKFDTKGIESTDEAKMSFLVTLNNVEVCSENISTLKKTLESDCTKLFSQGIGGEQAQAKFDSCLSDLAAVSNKFRDLLQEGLTELNSTAIKPQVQPWINSFFSVSHNIEEEEFNDYEANDPWVQQFILNLEQQMAEFKASLSPVIYDSLTGLMTSLVAVELEKVVLKSTFNRLGGLQFDKELRSLIAYLTTVTTWTIRDKFARLSQMATILNLERVTEILDYWGPNSGPLTWRLTPAEVRQVLALRIDFRSEDIKRLRL
binding [2]: binds

Further lines, results first:

binding [1]: binds
Molecule: NSF (from UniProt P46459 1-744)

binding [1]: binds
Molecule: NFKB1 (from UniProt P19838 1-968)

binding [2]: binds
B1: dopamine beta hydroxylase (protein, UniProt P09172 1-617)
chain: MPALSRWASLPGPSMREAAFMYSTAVAIFLVILVAALQGSAPRESPLPYHIPLDPEGSLELSWNVSYTQEAIHFQLLVRRLKAGVLFGMSDRGELENADLVVLWTDGDTAYFADAWSDQKGQIHLDPQQDYQLLQVQRTPEGLTLLFKRPFGTCDPKDYLIEDGTVHLVYGILEEPFRSLEAINGSGLQMGLQRVQLLKPNIPEPELPSDACTMEVQAPNIQIPSQETTYWCYIKELPKGFSRHHIIKYEPIVTKGNEALVHHMEVFQCAPEMDSVPHFSGPCDSKMKPDRLNYCRHVLAAWALGAKAFYYPEEAGLAFGGPGSSRYLRLEVHYHNPLVIEGRNDSSGIRLYYTAKLRRFNAGIMELGLVYTPVMAIPPRETAFILTGYCTDKCTQLALPPSGIHIFASQLHTHLTGRKVVTVLVRDGREWEIVNQDNHYSPHFQEIRMLKKVVSVHPGDVLITSCTYNTEDRELATVGGFGILEEMCVNYVHYYPQTQLELCKSAVDAGFLQKYFHLINRFNNEDVCTCPQASVSQQFTSVPWNSFNRDVLKALYSFAPISMHCNKSSAVRFQGEWNLQPLPKVISTLEEPTPQCPTSQGRSPAGPTVVSIGGGKG
